Reference: publication PMC6028919, “Scc2 Is a Potent Activator of Cohesin’s ATPase that Promotes Loading by Binding Scc1 without Pds5” (Molecular Cell, 2018)
No constants are given. Whether binding was seen depends on the method and setting. Some entries that bind do so weakly or less than the wild type. For part of these data: Sequences can lack the tags named with a protein.

Chains of the proteins cited; added tags and fusions are not shown. Lines headed by an entry give the natural chain unless they say otherwise; changes in a name come on top.
UniProt P32908: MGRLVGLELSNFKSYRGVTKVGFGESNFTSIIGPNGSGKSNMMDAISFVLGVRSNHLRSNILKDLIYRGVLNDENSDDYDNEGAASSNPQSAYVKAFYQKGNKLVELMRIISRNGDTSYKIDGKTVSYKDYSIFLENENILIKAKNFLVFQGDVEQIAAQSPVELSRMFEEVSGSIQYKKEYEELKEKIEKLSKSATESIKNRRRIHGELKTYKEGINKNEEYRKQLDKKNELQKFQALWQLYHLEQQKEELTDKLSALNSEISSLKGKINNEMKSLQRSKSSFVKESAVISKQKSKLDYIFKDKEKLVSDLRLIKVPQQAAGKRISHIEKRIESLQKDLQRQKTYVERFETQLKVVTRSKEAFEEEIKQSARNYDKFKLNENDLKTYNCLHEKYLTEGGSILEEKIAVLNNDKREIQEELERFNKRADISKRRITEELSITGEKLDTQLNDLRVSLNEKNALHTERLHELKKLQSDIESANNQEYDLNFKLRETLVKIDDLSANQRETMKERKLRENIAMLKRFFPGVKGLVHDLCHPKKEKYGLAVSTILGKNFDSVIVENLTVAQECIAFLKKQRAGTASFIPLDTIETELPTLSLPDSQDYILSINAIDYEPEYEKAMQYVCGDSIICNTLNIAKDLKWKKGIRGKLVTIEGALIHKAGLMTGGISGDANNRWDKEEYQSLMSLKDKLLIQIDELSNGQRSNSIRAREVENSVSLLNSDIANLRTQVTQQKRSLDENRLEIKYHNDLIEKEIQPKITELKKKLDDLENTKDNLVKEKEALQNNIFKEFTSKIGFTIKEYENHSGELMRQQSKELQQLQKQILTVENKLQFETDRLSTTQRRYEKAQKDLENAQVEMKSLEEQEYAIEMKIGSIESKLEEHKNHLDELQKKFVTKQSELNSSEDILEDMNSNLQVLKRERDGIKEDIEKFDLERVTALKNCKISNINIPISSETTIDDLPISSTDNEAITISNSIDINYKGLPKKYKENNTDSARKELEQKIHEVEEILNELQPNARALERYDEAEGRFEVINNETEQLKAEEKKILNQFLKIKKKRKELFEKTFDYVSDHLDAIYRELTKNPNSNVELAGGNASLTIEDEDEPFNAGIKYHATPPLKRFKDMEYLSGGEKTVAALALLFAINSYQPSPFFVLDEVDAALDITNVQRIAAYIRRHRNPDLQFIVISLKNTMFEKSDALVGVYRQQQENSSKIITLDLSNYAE
UniProt P47037: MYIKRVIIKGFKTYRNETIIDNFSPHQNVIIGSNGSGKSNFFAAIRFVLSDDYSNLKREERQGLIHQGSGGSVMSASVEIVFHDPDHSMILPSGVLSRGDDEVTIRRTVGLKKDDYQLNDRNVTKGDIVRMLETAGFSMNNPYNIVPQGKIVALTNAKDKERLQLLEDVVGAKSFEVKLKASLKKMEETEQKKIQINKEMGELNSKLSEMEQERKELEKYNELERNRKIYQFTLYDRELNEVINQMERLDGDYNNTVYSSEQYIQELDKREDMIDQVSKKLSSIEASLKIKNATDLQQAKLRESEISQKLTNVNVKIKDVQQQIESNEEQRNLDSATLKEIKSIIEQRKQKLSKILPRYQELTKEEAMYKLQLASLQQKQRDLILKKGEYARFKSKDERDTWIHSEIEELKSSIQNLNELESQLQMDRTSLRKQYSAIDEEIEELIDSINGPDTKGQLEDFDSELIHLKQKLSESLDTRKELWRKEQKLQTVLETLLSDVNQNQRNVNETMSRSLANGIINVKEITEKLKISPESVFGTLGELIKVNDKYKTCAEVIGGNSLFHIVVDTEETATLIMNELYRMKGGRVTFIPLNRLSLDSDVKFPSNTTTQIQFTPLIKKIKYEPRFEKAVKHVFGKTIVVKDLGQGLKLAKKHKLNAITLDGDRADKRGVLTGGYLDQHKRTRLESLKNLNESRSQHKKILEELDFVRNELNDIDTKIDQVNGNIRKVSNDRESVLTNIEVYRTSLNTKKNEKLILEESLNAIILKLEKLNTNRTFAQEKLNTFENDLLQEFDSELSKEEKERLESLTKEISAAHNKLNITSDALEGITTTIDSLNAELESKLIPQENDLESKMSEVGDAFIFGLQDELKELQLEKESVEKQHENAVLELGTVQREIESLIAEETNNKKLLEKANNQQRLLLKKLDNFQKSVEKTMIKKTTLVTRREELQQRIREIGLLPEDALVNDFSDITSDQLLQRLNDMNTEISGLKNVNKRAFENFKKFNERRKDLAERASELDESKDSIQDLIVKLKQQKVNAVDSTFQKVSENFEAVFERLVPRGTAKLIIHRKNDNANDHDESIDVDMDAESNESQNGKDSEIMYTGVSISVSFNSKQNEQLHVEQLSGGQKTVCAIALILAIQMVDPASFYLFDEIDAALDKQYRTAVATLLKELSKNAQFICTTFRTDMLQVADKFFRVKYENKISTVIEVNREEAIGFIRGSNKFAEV

Legend:
[1] = target: cohesin tetramer (Smc1, Smc3, Scc1, Scc3) (S. cerevisiae) (UniProt P32908+P47037+Q12158+P40541); assay: co-purification (StrepTrap affinity, then gel filtration); subunits co-expressed in Sf9; captured from the cleared extract by the 2xStrepII tag on Scc1, eluted with 20 mM desthiobiotin, Superose 6 Increase in 25 mM HEPES pH 8.0, 150 mM NaCl, 1 mM TCEP, 10% glycerol; SDS-PAGE
[2] = target: T1, Scc1-2xStrepII (S. cerevisiae) (UniProt Q12158); assay: as above
T1 sequence: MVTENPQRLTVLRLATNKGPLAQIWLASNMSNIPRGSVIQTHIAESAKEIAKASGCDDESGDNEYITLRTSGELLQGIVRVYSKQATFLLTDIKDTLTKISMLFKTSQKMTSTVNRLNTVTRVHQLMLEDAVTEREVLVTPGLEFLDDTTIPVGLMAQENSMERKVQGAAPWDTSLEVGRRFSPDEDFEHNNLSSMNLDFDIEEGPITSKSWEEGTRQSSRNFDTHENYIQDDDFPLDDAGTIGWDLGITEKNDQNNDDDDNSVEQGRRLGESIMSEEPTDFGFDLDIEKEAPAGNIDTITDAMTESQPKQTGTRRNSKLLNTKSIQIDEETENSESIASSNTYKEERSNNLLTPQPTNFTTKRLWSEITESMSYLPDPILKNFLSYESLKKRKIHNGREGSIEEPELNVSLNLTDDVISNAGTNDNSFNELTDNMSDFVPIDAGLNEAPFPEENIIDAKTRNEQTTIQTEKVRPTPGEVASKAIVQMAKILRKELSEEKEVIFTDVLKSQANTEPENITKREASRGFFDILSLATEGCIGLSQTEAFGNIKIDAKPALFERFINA

[3] = target: T1, Scc1-2xStrepII (S. cerevisiae); assay: pull-down; control experiment: purified hexamer captured on streptavidin Dynabeads under the conditions of the GFP-Scc2 co-IP; washes with 150 mM NaCl; Coomassie-stained SDS-PAGE; both purified
[4] = target: T2, scc1(Δ152-256)-2xStrepII (S. cerevisiae) (UniProt Q12158); assay: co-purification (StrepTrap affinity, then gel filtration); subunits co-expressed in Sf9; captured from the cleared extract by the 2xStrepII tag on Scc1, eluted with 20 mM desthiobiotin, Superose 6 Increase in 25 mM HEPES pH 8.0, 150 mM NaCl, 1 mM TCEP, 10% glycerol; SDS-PAGE
T2 sequence: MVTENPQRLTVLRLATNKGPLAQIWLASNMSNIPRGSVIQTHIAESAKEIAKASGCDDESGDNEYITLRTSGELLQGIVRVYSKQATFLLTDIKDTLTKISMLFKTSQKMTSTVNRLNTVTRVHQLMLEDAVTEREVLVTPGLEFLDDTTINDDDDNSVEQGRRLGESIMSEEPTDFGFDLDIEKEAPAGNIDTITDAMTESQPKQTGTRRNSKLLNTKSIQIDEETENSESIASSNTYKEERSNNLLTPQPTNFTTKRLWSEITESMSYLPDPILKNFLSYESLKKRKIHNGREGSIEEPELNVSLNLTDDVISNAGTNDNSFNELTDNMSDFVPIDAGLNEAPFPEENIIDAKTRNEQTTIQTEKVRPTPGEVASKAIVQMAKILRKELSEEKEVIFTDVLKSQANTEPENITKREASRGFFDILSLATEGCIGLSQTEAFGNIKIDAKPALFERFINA

Measured: binding

B1: Pds5-Flag (protein, UniProt Q04264 1-1277)
chain: MAKGAVTKLKFNSPIISTSDQLISTNELLDRLKALHEELASLDQDNTDLTGLDKYRDALVSRKLLKHKDVGIRAFTACCLSDILRLYAPDAPYTDAQLTDIFKLVLSQFEQLGDQENGYHIQQTYLITKLLEYRSIVLLADLPSSNNLLIELFHIFYDPNKSFPARLFNVIGGILGEVISEFDSVPLEVLRLIFNKFLTYNPNEIPEGLNVTSDCGYEVSLILCDTYSNRMSRHLTKYYSEIIHEATNDDNNSRLLTVVVKLHKLVLRLWETVPELINAVIGFIYHELSSENELFRKEATKLIGQILTSYSDLNFVSTHSDTFKAWISKIADISPDVRVEWTESIPQIIATREDISKELNQALAKTFIDSDPRVRRTSVMIFNKVPVTEIWKNITNKAIYTSLLHLAREKHKEVRELCINTMAKFYSNSLNEIERTYQNKEIWEIIDTIPSTLYNLYYINDLNINEQVDSVIFEYLLPFEPDNDKRVHRLLTVLSHFDKKAFTSFFAFNARQIKISFAISKYIDFSKFLNNQESMSSSQGPIVMNKYNQTLQWLASGLSDSTKAIDALETIKQFNDERIFYLLNACVTNDIPFLTFKNCYNELVSKLQTPGLFKKYNISTGASIMPRDIAKVIQILLFRASPIIYNVSNISVLLNLSNNSDAKQLDLKRRILDDISKVNPTLFKDQIRTLKTIIKDLDDPDAEKNDNLSLEEALKTLYKASKTLKDQVDFDDTFFFTKLYDFAVESKPEITKYATKLIALSPKAEETLKKIKIRILPLDLQKDKYFTSHIIVLMEIFKKFPHVLNDDSTDIISYLIKEVLLSNQVVGDSKKEIDWVEDSLLSDTKYSAIGNKVFTLKLFTNKLRSIAPDVPRDELAESFTEKTMKLFFYLIASGGELISEFNKEFYPTPSNYQTKLRCVAGIQVLKLARISNLNNFIKPSDIIKLINLVEDESLPVRKTFLEQLKDYVANELISIKFLPLVFFTAYEPDVELKTTTKIWINFTFGLKSFKKGTIFERALPRLIHAIAHHPDIVGGLDSEGDAYLNALTTAIDYLLFYFDSIAAQENFSLLYYLSERVKNYQDKLVEDEIDEEEGPQKEEAPKKHRPYGQKMYIIGELSQMILLNLKEKKNWQHSAYPGKLNLPSDLFKPFATVQEAQLSFKTYIPESLTEKIQNNIKAKIGRILHTSQTQRQRLQKRLLAHENNESQKKKKKVHHARSQADDEEGDGDRESDSDDDSYSPSNKNETKKGHENIVMKKLRVRKEVDYKDDEDDDIEMT
binds: [1] | [2] | [3]

B2: Scc3 (protein, UniProt P40541 1-1150)
chain: MTAVRRSTRIRTKSQVIEEDYDDEQNTSAQHVESDKITAKTQHEEEEEQDTGESEESSSEDDYEDQDDDDYVDTATAKRKSRKRKPKSASNTSSKRQKKKPTSAQKSAVSHAPAYHRSKKDQDQYLEIAKDFQPTELFDILSTSEDVSIEELLREWLETYSENRDKFLQEFINLLLNCCGSVARVEDHDVHSNESSNETIGEIQLLFQRQKLHEFYLLISKENKKRKNFKMGPLYQNFAEFMTKLLEVANDLQLLYVESDEDDTQIVTGNLVLDLLTWLSSFSVCKIRCFRYISTLTLYLFQDYLTQQAVNLEKNYLAKLSKQLSLEEKKKRPNNKTLEKLESTIAETQGSKVVIDSIIDNIVKLCFVHRYKDVSDLIRSESMLHLSIWIKNYPEYFLKVTFLKYFGWLLSDNSVSVRLQVTKILPHLIIQNHNSKSTDNSAIRQVFERFKTKILEVAIRDVNLDVRIHSIQVLTEASSLGYLDDSEILIISSLMFDEEFDPFKTSSFNKRSKFLSTVAKFLARVIKEKFDEFIKTHEDLPKEVDGLEVGPVVQVGIFIKILNDSLIYHLKDCAEVDSRTKIRMLTQAAEFLSPYISTHLKTICNLLISDTESNELIQKLQNSANNNSDDEDVDDEELDITPLFPIDRNSTILYLNVFHGLCAGANNPKIQTKDSVKEIVLPLFYDLLNAASIESADILCPLLESFITFSLDDWISIGYETELKKITDKTIKAFMDSTIGNSKVDMKYDIFAKFIHHIHHFEKKELQEKFLNQIATLKIHLKKFLQEKMDPNNSRDDYKDLTCSLYELYINKLTILGRDYPIEVDEELLQLFLNNFVSRIPIMFQDFDDSTAQEINFKMLVLLATWNLEKWREIIEKVRDYENSISKDLRSVWKPIAAIIGRLNTLVISLAATNETFENINSLFYLKWSACTSLMDIIVAIKIFELKLPADATTWRYSMSEQFPFYLHDNASKVLLKIFLYLESLFAKQVDVQLERVADEDANLNDLPETGFFENIETEFLLFTVKLKGLMKLNILDERFASRVALNKEKLGPLFKKIVDDTIMENPEPNKKNIQKAKSNQTQREKAPLQPNSERETDHANTENNDPDIPMTIDLEPIEESSQNNSELAPIEEHPTVVDAIDNSDEITQD
binds: [4] | [2] | [3]
